In PubChem BioAssay AID216 (DTP/NCI, 2004):
The list shows only some results of the screen, not a fair sample: it gathers tests that were run many times, whatever their T/C, doses with no T/C, and many T/C values between a quarter and a half above the control. Further doses and runs are listed elsewhere. T/C: endpoint of the treated group in % of that of the vehicle group. Some entries give survivors of the animals treated and no T/C: the source files T/C as zero there, which appears to mark a toxic dose or a test without result, not a measured value. Some survivor counts are full or nearly so, which does not show that the dose was tolerated: survival well below the control is almost never listed, so the zero probably covers shortened survival too. Counts of survivors are from the toxicity check (mostly the fifth day) where no day follows; animals may have died later. Schedule codes are those of the source, read here as Q, the interval in days (D) or hours (H), X, the number of doses. Some entries hold several experiments; their values stand side by side, smallest first. Some schedules carry Z or #; the key to these is not given. Where survival is the endpoint, the PubChem record calls one and a half times the control and up active, and a quarter to a half above the control has no call in these data; cut-offs in other NCI protocols can differ. Brackets with × stand for listed records that agree.

Tested on: BDF1 mice, P288 leukemia ip, survival T/C
Assay: NCI In Vivo Anticancer Drug Screen. Data for tumor model P288 Lymphocytic Leukemia (intraperitoneal) in B6D2F1 (BDF1) mice
Conditions: T/C endpoint: survival time, mean or median, higher T/C = longer survival
Protocol: The antitumor activity of compounds was measured in mice bearing transplantable tumors. Survival or tumor size were measured and the results are expressed as the measurement made in the treated group (T) divided by the measurement made in the vehicle treated control group (C). The tumor model used in this assay is P288 Lymphocytic Leukemia (intraperitoneal) in B6D2F1 (BDF1) mice

[1] = dose: 50.0 mg/kg/injection, schedule: Q01DX010 (ip), vehicle: saline
[2] = dose: 16.0 mg/kg/injection, schedule: Q01DX010 (ip), vehicle: saline
[3] = dose: 6.25 mg/kg/injection, schedule: Q01DX010 (ip), vehicle: saline
[4] = dose: 12.5 mg/kg/injection, schedule: Q01DX010 (ip), vehicle: saline
[5] = dose: 25.0 mg/kg/injection, schedule: Q01DX010 (ip), vehicle: saline
[6] = dose: 9.4 mg/kg/injection, schedule: Q01DX Z (ip), vehicle: carboxymethylcellulose (CMC)
[7] = dose: 3.13 mg/kg/injection, schedule: Q01DX010 (ip), vehicle: saline

SMILES: C[C@]12C=CC(=O)C=C1CC[C@@H]1[C@@H]2C(=O)C[C@@]2(C)[C@H]1CC[C@]2(O)C(=O)CO
- survivor count (dose: 12.5 mg/kg/injection, schedule: Q01DX010 (sc), vehicle: steroid suspending solution): 6 of 6
- survivor count (dose: 25.0 mg/kg/injection, schedule: Q01DX010 (sc), vehicle: steroid suspending solution): 6 of 6
- survivor count (dose: 100.0 mg/kg/injection, schedule: Q01DX010 (sc), vehicle: steroid suspending solution): 6 of 6
- survivor count (dose: 200.0 mg/kg/injection, schedule: Q01DX010 (sc), vehicle: steroid suspending solution): 6 of 6
- survivor count (dose: 400.0 mg/kg/injection, schedule: Q01DX Z (sc), vehicle: steroid suspending solution): 5 of 6

SMILES: CCCCCCCCCCCCNCCCCCCCCCCCC
- survivor count (dose: 120.0 mg/kg/injection, schedule: Q01DX Z (ip), vehicle: carboxymethylcellulose (CMC)): 4 of 6
- survivor count (dose: 240.0 mg/kg/injection, schedule: Q01DX Z (ip), vehicle: carboxymethylcellulose (CMC)): 4 of 6

SMILES: Cc1cc2nc3c(=O)[nH]c(=O)nc-3n(CC(O)C(O)C(O)C(O)CO)c2cc1C (stereo not given)
- survivor count [1]: 5 of 6

SMILES: CN(N=O)C(=O)NC(C=O)C(O)C(O)C(O)CO (stereo not given)
- survivor count (dose: 200.0 mg/kg/injection, schedule: Q01DX Z (ip), vehicle: saline): 2 of 6
- survivor count (dose: 400.0 mg/kg/injection, schedule: Q01DX Z (ip), vehicle: saline): 0 of 6

SMILES: COc1ccc2c(c1OC)C(=O)O[C@@H]2[C@H]1c2c(cc3c(c2OC)OCO3)CCN1C
- T/C (dose: 15.6 mg/kg/injection, schedule: Q01DX010 (ip), vehicle: saline): 125 % of control
- survivor count (dose: 31.3 mg/kg/injection, schedule: Q01DX010 (ip), vehicle: saline): 6 of 6
- survivor count (dose: 62.5 mg/kg/injection, schedule: Q01DX010 (ip), vehicle: saline): 6 of 6
- survivor count (dose: 125.0 mg/kg/injection, schedule: Q01DX010 (ip), vehicle: saline): 6 of 6
- survivor count (dose: 250.0 mg/kg/injection, schedule: Q01DX010 (ip), vehicle: saline): 6 of 6

SMILES: C[C@]12CC[C@H](OC3OC(CO)C(O)C(O)C3O)C[C@H]1CC[C@@H]1[C@@H]2CC[C@]2(C)[C@@H](C3=CCOC3=O)CC[C@]12O (stereo not given in full)
- survivor count (dose: 8.0 mg/kg/injection, schedule: Q01DX Z (ip), vehicle: saline): 3 of 6
- survivor count (dose: 16.0 mg/kg/injection, schedule: Q01DX Z (ip), vehicle: saline): 0 of 6

SMILES: CS(=O)(=O)OCCN(CCOS(C)(=O)=O)c1ccc(N=O)cc1
- T/C (dose: 1.0 mg/kg/injection, schedule: Q01DX010 (ip), vehicle: saline): 131 % of control
- survivor count (dose: 4.0 mg/kg/injection, schedule: Q01DX010 (ip), vehicle: saline): 6 of 6
- survivor count (dose: 8.0 mg/kg/injection, schedule: Q01DX010 (ip), vehicle: saline): 5 of 6
- survivor count [2]: 2 of 6

SMILES: O=c1[nH]cc(F)c(=O)[nH]1
- T/C (dose: 10.0 mg/kg/injection, schedule: Q01DX010 (ip), vehicle: saline): 130 and 137 % of control

SMILES: O=C(O)CCCc1ccc(N(CCCl)CCCl)cc1
- survivor count [3]: 6 of 6
- T/C (dose: 6.25 mg/kg/injection, schedule: Q01DX Z (ip), vehicle: carboxymethylcellulose (CMC)): 125 % of control
- survivor count [4]: 6 of 6
- survivor count (dose: 12.5 mg/kg/injection, schedule: Q01DX Z (ip), vehicle: carboxymethylcellulose (CMC)): 6 of 6
- survivor count [5]: 0 of 6 and 4 of 6
- survivor count (dose: 50.0 mg/kg/injection, schedule: Q01DX Z (ip), vehicle: carboxymethylcellulose (CMC)): 5 of 6

SMILES: CSCS(=O)C[C@H](CO)NC(=O)/C=C/c1c(C)[nH]c(=O)[nH]c1=O (stereo not given in full)
- survivor count (dose: 2.0 mg/kg/injection, schedule: Q01DX Z (ip), vehicle: saline): 2 of 6

SMILES: O=C(Nc1ccc(C2=NCCN2)cc1)c1cccc(C(=O)Nc2ccc(C3=NCCN3)cc2)c1
- T/C [6]: 137 % of control
- survivor count (dose: 150.0 mg/kg/injection, schedule: Q01DX Z (ip), vehicle: carboxymethylcellulose (CMC)): 4 of 6

SMILES: CSc1ncnc2nc[nH]c12
- survivor count [5]: 6 of 6
- survivor count (dose: 25.0 mg/kg/injection, schedule: Q01DX Z (ip), vehicle: carboxymethylcellulose (CMC)): 6 of 6
- survivor count [1]: 6 of 6
- survivor count (dose: 100.0 mg/kg/injection, schedule: Q01DX010 (ip), vehicle: saline): 6 of 6
- survivor count (dose: 100.0 mg/kg/injection, schedule: Q01DX Z (ip), vehicle: carboxymethylcellulose (CMC)): 6 of 6
- survivor count (dose: 200.0 mg/kg/injection, schedule: Q01DX010 (ip), vehicle: saline): 6 of 6
- survivor count (dose: 200.0 mg/kg/injection, schedule: Q01DX Z (ip), vehicle: carboxymethylcellulose (CMC)): 6 of 6

SMILES: COc1cc2c(c(OC)c1OC)-c1ccc(N)c(=O)cc1[C@@H](NC(C)=O)CC2
- T/C (dose: 0.25 mg/kg/injection, schedule: Q01DX010 (ip), vehicle: saline): 142 % of control
- T/C (dose: 0.5 mg/kg/injection, schedule: Q01DX010 (ip), vehicle: saline): 141 % of control

SMILES: CCCNc1ncnc2[nH]ncc12
- T/C (dose: 1.25 mg/kg/injection, schedule: Q01DX Z (ip), vehicle: water): 128 % of control
- T/C [7]: 105 % of control
- survivor count [7]: 6 of 6
- survivor count (dose: 5.0 mg/kg/injection, schedule: Q01DX Z (ip), vehicle: water): 6 of 6
- T/C [3]: 88 (2×), 90, 94 % of control
- T/C [4]: 94 (2×), 95, 100 % of control
- survivor count (dose: 20.0 mg/kg/injection, schedule: Q01DX Z (ip), vehicle: water): 6 of 6
- T/C [5]: 100, 110, 111, 117 % of control
- survivor count (dose: 40.0 mg/kg/injection, schedule: Q01DX Z (ip), vehicle: water): 6 of 6
- survivor count (dose: 160.0 mg/kg/injection, schedule: Q01DX Z (ip), vehicle: water): 0 of 6

SMILES: CN(C)c1nc(N(C)C)nc(N(C)C)n1
- survivor count (dose: 18.8 mg/kg/injection, schedule: Q01DX010 (ip), vehicle: saline): 6 of 6
- survivor count (dose: 37.5 mg/kg/injection, schedule: Q01DX010 (ip), vehicle: saline): 6 of 6
- survivor count (dose: 62.5 mg/kg/injection, schedule: Q01DX Z (ip), vehicle: carboxymethylcellulose (CMC)): 6 of 6
- survivor count (dose: 75.0 mg/kg/injection, schedule: Q01DX010 (ip), vehicle: saline): 6 of 6
- survivor count (dose: 150.0 mg/kg/injection, schedule: Q01DX010 (ip), vehicle: saline): 5 of 6 and 6 of 6
- survivor count (dose: 250.0 mg/kg/injection, schedule: Q01DX Z (ip), vehicle: carboxymethylcellulose (CMC)): 4 of 6
- survivor count (dose: 500.0 mg/kg/injection, schedule: Q01DX Z (ip), vehicle: carboxymethylcellulose (CMC)): 1 of 6

SMILES: [I][Hg][CH2]C1COC([CH2][Hg][I])CO1 (stereo not given)
- survivor count (dose: 7.5 mg/kg/injection, schedule: Q01DX Z (ip), vehicle: carboxymethylcellulose (CMC)): 6 of 6

SMILES: Nc1nc(SCc2ccccc2)c2[nH]cnc2n1
- survivor count [6]: 6 of 6
- survivor count [2]: 6 of 6
- survivor count (dose: 32.0 mg/kg/injection, schedule: Q01DX010 (ip), vehicle: saline): 6 of 6
- survivor count (dose: 37.5 mg/kg/injection, schedule: Q01DX Z (ip), vehicle: carboxymethylcellulose (CMC)): 6 of 6
- survivor count (dose: 64.0 mg/kg/injection, schedule: Q01DX010 (ip), vehicle: saline): 6 of 6
- survivor count (dose: 75.0 mg/kg/injection, schedule: Q01DX Z (ip), vehicle: carboxymethylcellulose (CMC)): 5 of 6

SMILES: CC1CCOS(=O)O1 (stereo not given)
- survivor count (dose: 80.0 mg/kg/injection, schedule: Q01DX010 (ip), vehicle: saline): 6 of 6
